Data reported in patent US10966994B2, “Thromboxane receptor antagonists” (ATXA THERAPEUTICS LIMITED, priority 2015, dated 2021).
Some entries share one result that the patent states for a list of compounds. One block for each compound: values may come before it.

Sequences of proteins named here, by UniProt entry; tags and fusion partners are left off. A change or cut given only in a name is not applied to a line headed by its entry.
UniProt P43119: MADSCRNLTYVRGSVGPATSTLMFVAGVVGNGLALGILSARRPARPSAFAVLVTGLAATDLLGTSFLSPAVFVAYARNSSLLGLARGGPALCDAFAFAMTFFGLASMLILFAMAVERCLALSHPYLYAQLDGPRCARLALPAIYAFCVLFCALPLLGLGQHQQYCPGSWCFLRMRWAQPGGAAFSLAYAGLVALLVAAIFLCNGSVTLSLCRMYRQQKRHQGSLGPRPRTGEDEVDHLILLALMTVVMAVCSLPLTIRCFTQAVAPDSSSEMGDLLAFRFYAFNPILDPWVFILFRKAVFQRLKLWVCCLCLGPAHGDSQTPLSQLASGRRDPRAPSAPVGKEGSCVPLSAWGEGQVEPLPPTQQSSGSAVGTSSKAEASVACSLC

Tests used:
EP3 = experiment: EP/PGE2-mediated calcium mobilization in HEL 92.1.7 cells; format: cell-based; settings: compounds at 10 μM, 1 μM PGE2
hIP = hIP (Homo sapiens, UniProt P43119); experiment: Cicaprost-mediated calcium mobilization in HEK.hIP cells; format: cell-based; set-up: expressed in transfected cells; host or cells: HEK.hIP cells; settings: compounds at 10 μM, 1 μM Cicaprost

SMILES: COc1ccc(-c2cccc(Oc3ccc(C#N)cc3S(=O)(=O)NC(=O)NC(C)(C)C)c2)cc1 [NTP4, reference compound]
effect on EP/PGE2-mediated calcium mobilization (EP3): no effect
effect on IP/cicaprost-mediated calcium mobilization (hIP): no effect

SMILES: CC(C)(C)NC(=O)NS(=O)(=O)c1cc(C#N)ccc1Oc1cccc(-c2ccc(OC(F)F)cc2)c1 [NTP42]
effect on EP/PGE2-mediated calcium mobilization (EP3): no effect
effect on IP/cicaprost-mediated calcium mobilization (hIP): no effect

SMILES: CC(C)(C)NC(=O)NS(=O)(=O)c1cc(C#N)ccc1Oc1cccc(-c2ccc(OC(F)(F)F)cc2)c1 [NTP43]
effect on EP/PGE2-mediated calcium mobilization (EP3): no effect
effect on IP/cicaprost-mediated calcium mobilization (hIP): no effect

SMILES: CC(C)(C)NC(=O)NS(=O)(=O)c1cc(C#N)ccc1Oc1cccc(-c2ccc(C(F)F)cc2)c1 [NTP44, 1-tert-Butyl-3-[5-cyano-2-[3-[4-(difluoromethyl)phenyl]phenoxy]phenyl]sulfonyl-urea]
effect on EP/PGE2-mediated calcium mobilization (EP3): no effect
effect on IP/cicaprost-mediated calcium mobilization (hIP): no effect

SMILES: CC(C)(C)NC(=O)NS(=O)(=O)c1cc(C#N)ccc1Oc1cccc(-c2ccc(C(F)(F)F)cc2)c1 [NTP45, 1-tert-Butyl-3-[5-cyano-2-[3-[4-(trifluoromethyl)phenyl]phenoxy]phenyl]sulfonyl-urea]
effect on EP/PGE2-mediated calcium mobilization (EP3): no effect
effect on IP/cicaprost-mediated calcium mobilization (hIP): no effect

SMILES: CC(C)(C)NC(=O)NS(=O)(=O)c1cc(C#N)ccc1Oc1cccc(-c2ccc(C(N)=O)cc2)c1 [NTP46]
effect on EP/PGE2-mediated calcium mobilization (EP3): no effect
effect on IP/cicaprost-mediated calcium mobilization (hIP): no effect

SMILES: COc1ccc(-c2cccc(Oc3ccc([N+](=O)[O-])cc3S(=O)(=O)NC(=O)NC(C)(C)C)c2)cc1 [TP20, reference compound]
effect on EP/PGE2-mediated calcium mobilization (EP3): no effect
effect on IP/cicaprost-mediated calcium mobilization (hIP): no effect

Continued, in another order:

effect on IP/cicaprost-mediated calcium mobilization (hIP): no effect
SMILES: CNC(=O)c1ccc(-c2cccc(Oc3ccc(C#N)cc3S(=O)(=O)NC(=O)NC(C)(C)C)c2)cc1 [NTP47, 4-[3-[2-(tert-Butylcarbamoylsulfamoyl)-4-cyano-phenoxy]phenyl]-N-methyl-benzamide]
effect on EP/PGE2-mediated calcium mobilization (EP3): no effect

effect on IP/cicaprost-mediated calcium mobilization (hIP): no effect
SMILES: CN(C)C(=O)c1ccc(-c2cccc(Oc3ccc(C#N)cc3S(=O)(=O)NC(=O)NC(C)(C)C)c2)cc1 [NTP48, 4-[3-[2-(tert-Butylcarbamoylsulfamoyl)-4-cyano-phenoxy]phenyl]-N,N-dimethyl-benzamide]
effect on EP/PGE2-mediated calcium mobilization (EP3): no effect

effect on IP/cicaprost-mediated calcium mobilization (hIP): no effect
SMILES: CC(C)(C)NC(=O)NS(=O)(=O)c1cc(C#N)ccc1Oc1cccc(-c2ccc(C#N)cc2)c1 [NTP49, 1-tert-Butyl-3-[5-cyano-2-[3-(4-cyanophenyl)phenoxy]phenyl]sulfonyl-urea]
effect on EP/PGE2-mediated calcium mobilization (EP3): no effect
